# PubChem BioAssay AID2685 (National Center for Advancing Translational Sciences (NCATS), 2010)
# Some of the results follow. The main result of the screen is listed elsewhere. These columns were measured beside it and carry no call. Compounds called inactive in the main read-out are mostly missing here. Words in brackets tell the shape of the fitted curve; partial curves, single points and poor fits give uncertain potencies.
# Test: qHTS Assay for Lipid Storage Modulators in Drosophila S3 Cells;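 for cell number change: cells counted by Cell Tracker Red CMTPX staining in the red channel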
# Conditions: BODIPY lipid droplet fluorescence, 18-24 h; for cell number change: measured here: cell count max response, cells fed with added oleic acid
# How it was run: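 Drosophila S3 cells got compounds at several concentrations plus oleic acid (400 uM solution). Laser-scanning cytometry with 488 nm excitation read lipid droplets at 500-530 nm and cells at 575-640 nm. Percent activity was relative to 20 uM Triacsin C.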
# [1] = measured here: cell number channel AC50, cells fed with added oleic acid
# [2] = measured here: lipid fluorescence (Fed channel) AC50, cells fed with added oleic acid
Compound,cell number change,AC50 [1],AC50 [2]
CC(NC(=O)C1CCCN(S(=O)(=O)c2ccc(-n3cnnn3)cc2)C1)c1ccc(F)cc1 (stereo not given),48.7%,"23.1 µM [rising, single point]","6.51 µM [rising, partial curve]"
COc1ccc(N2CCN(C(=O)c3ccccc3NS(=O)(=O)c3ccccc3)CC2)cc1,13.6%,,"6.51 µM [rising, single point]"
O=C(Nc1ccccc1Cl)c1ccccc1Cc1ccccc1,-0.497%,,"0.231 µM [falling, full curve, poor fit]"
COC(=O)c1ccc(NC(=O)c2cc(-c3ccncc3)nc3ccccc23)cc1,14.4%,,"0.58 µM [rising, partial curve, poor fit]"
Cc1ccc([N+](=O)[O-])cc1-c1ccc(/C=C(\C#N)c2[nH]nc(N)c2C#N)o1,-74.5%,"29.1 µM [falling, single point]","0.326 µM [rising, full curve, poor fit]"
CCOC(=O)C1CCN(C(=O)c2cc3c(=O)n4ccccc4nc3n2C)CC1,142%,"29.1 µM [rising, single point]","29.1 µM [rising, single point]"
Oc1cccc(NC(=S)Nc2ccccc2)c1,3.57%,,"2.91 µM [rising, partial curve]"
O=C(NCc1cccs1)C1CCC(CNS(=O)(=O)c2ccccc2)CC1 (stereo not given),11.7%,,
CCOc1cc(C2NC(=O)N(C)C(C)=C2C(=O)OC)cc(Br)c1O (stereo not given),159%,"23.1 µM [rising, single point]",
Cc1cc(S(=O)(=O)/N=C(\N)c2ccc(C(N)=O)cc2)cc(C)c1F,17%,,
Cc1ccccc1C(=O)N1CCc2cc(-c3csc(NC(=O)CN4CCCC4)n3)ccc21,-7.69%,,
C/C(=N\NC(=O)c1ccc(O)cc1)c1ccc2c(c1)Nc1ccccc1S2,,,"0.651 µM [rising, full curve, poor fit]"
CC(O)[C@H]1CC[C@H]2[C@@H]3CC[C@H]4C[C@@H](O)CC[C@]4(C)[C@H]3/C(=N/O)C[C@]12C (stereo not given in full),-40.3%,"20.6 µM [falling, single point]","29.1 µM [falling, partial curve, poor fit]"
O=C(Nc1c(-c2ccccc2)nc2ccccn12)c1cccs1,13.7%,,"14.6 µM [rising, partial curve, poor fit]"
O=C(Nc1ccc(-c2nc3ccccc3[nH]2)cc1)C1CCCO1 (stereo not given),-12.5%,,
O=C(CCCOc1ccc(Cl)cc1Cl)N1CCc2ccccc2C1,-28.8%,,"23.1 µM [falling, single point]"
COc1ccc(/C=C2\SC(=O)N=C2N)cc1OC,10.4%,,"23.1 µM [rising, partial curve, poor fit]"
CCNc1nc(C(=O)O)nc(N2CCOCC2)n1,-21.9%,,"8.2 µM [falling, partial curve]"
COc1ccc2c(-c3ccccc3)cc3nnnn3c2c1,2.34%,,"0.259 µM [rising, full curve, poor fit]"
c1ccc(-c2oc3ncnc(NCCN4CCOCC4)c3c2-c2ccccc2)cc1,-33.6%,"18.4 µM [falling, single point]",

# Complete entries from above:
# COC(=O)c1ccc(NC(=O)c2cc(-c3ccncc3)nc3ccccc23)cc1 as listed: cell number change: 14.4%; AC50 [2]: 0.58 µM [rising, partial curve, poor fit]
# O=C(CCCOc1ccc(Cl)cc1Cl)N1CCc2ccccc2C1 as listed: cell number change: -28.8%; AC50 [2]: 23.1 µM [falling, single point]

# Remaining list, next part.

Compound,cell number change,AC50 [1],AC50 [2]
Cc1cccc(NC(=O)Cn2cc(C=O)c3ccccc32)c1,330%,,
Cc1ccccc1OCC(=O)N1CCCCCCC1,-1.66%,,"4.61 µM [rising, single point]"
CCN1/C(=C/C(=O)c2ccco2)Sc2ccccc21,-35.2%,"1.03 µM [falling, full curve]","2.31 µM [falling, partial curve]"
O=C(NCc1ccccc1)C1CCC(=O)N(CCCN2CCCC2=O)C1 (stereo not given),9.79%,,"3.66 µM [falling, partial curve]"
CCCNC(=O)c1ccc(N2CCC3(CC2)CC(c2ccccc2)=NO3)c(NC(=O)c2ccco2)c1,,,"4.61 µM [falling, partial curve]"
COC(=O)C1CCN(C(=O)c2ccc3oc(Cc4ccc(Cl)cc4)nc3c2)CC1,30.8%,"0.58 µM [rising, full curve, poor fit]",
O=C(COC(=O)Cc1c(Cl)cccc1Cl)NCCC1=CCCCC1,-7.73%,,"0.58 µM [falling, full curve]"
Cc1ccn2c(C(=O)NN=C3CCCCCCC3)c(C)nc2c1,32.7%,"25.9 µM [rising, partial curve, poor fit]","10.3 µM [rising, partial curve]"
c1ccc2[nH]c(SCc3ccc(-c4nnco4)cc3)nc2c1,-28.2%,,
Cc1ccc(C(=O)N/N=C\c2cccnc2)s1,16.5%,"0.164 µM [rising, full curve, poor fit]","1.84 µM [rising, partial curve]"
O=C(NCc1ccc(F)cc1)c1cccc(NC2=NC3CS(=O)(=O)CC3S2)c1 (stereo not given),11.8%,,"11.6 µM [falling, single point]"
Cc1cc(C)cc(OCC(=O)NNC(=O)c2ccccn2)c1,5.49%,,"8.2 µM [falling, partial curve]"
CC(C)(C)c1ccc(C(=O)NCCC(=O)Nc2ccc3c(c2)OCCO3)cc1,-11.3%,,
O=C(C1CC1)N1CCc2cc(S(=O)(=O)NCc3ccccc3)ccc21,-27.2%,,"4.11 µM [falling, full curve]"
COc1ccc(N2CC(C(=O)N/N=C/c3ccc(C)cc3)CC2=O)cc1 (stereo not given),20.8%,"6.51 µM [falling, single point]",
N#Cc1c(N)n(-c2ccccc2)c(=O)c2cc([N+](=O)[O-])ccc12,98.4%,"2.06 µM [falling, partial curve]",
O=C1CCN(CCc2ccccc2)CCN1[C@H](COc1ccccc1)c1ccccc1,9.06%,,"29.1 µM [falling, single point]"
O=C(COC(=O)/C=C/c1ccc2ccccc2n1)NNC(=O)c1ccc([N+](=O)[O-])cc1,,"6.51 µM [falling, single point]",
O=C(NCCNC(=O)c1ccccc1Br)c1cccnc1,9.94%,,"29.1 µM [rising, single point]"
